# No constants are given. Whether binding was seen depends on the method and setting. Some binding calls cover weakened binding; strength is not graded here.
# Target: ProE (PA5295), GGDEF-EAL c-di-GMP phosphodiesterase of Pseudomonas aeruginosa PAO1 (Pseudomonas aeruginosa PAO1) (UniProt Q9HTQ9)
# Experiment: two-hybrid; BacterioMatch II bacterial two-hybrid (Stratagene); pBT-proE (bait) and pTRG-proE (prey) co-transformed into XL1-Blue MRF' Kan; growth on M9+ His-deficient medium with 5 mM 3-AT, 24-72 h, 30°C; positive colonies re-streaked with 5 mM 3-AT and 12.5 mg/ml streptomycin
binder,measurement,value
"ProE (PA5295), GGDEF-EAL c-di-GMP phosphodiesterase of Pseudomonas aeruginosa PAO1 (enzyme, UniProt Q9HTQ9 1-558) MSAPAEPLRLLLLADTPDWAPLLGERLRALGPAFSLSIVTTWEGAATLFAAEPRGLLLATPACLPLGTPCPWPVILLLQQEPAQAPVGVVDWLAAEQLSEDSLRRCLRYARERLGLQATLQLLAEQDPLTGIANRQGFQTLLAARLSEFDGRGLVLGHLDLDNFRHVNDSLGHQGGDRLILQVVNRLRGFMENGDSLARLGSDEFALLLDTRRDPQRAERVAERIVECLGEPYWIDGESLLLGCSLGLAHARADEGADPLMWHAHIAMQQAKSRQGCTFHVFDERINRGVRSLADLEAELRRALRRDELELHYQPRLCLDSGRIVGLEALVRWRHGERGLLTPSEFVPLAEESGLIVPLGYWVIARALRDMQWLNGRGLEPLHMAVNLSFRQFQDSQLLPTLQRLIEEHGVDARWLEFELTETAVMRRSDQVLQTMQALGQLGVRFSLDDFGTGFSSFVHLNSLPITLLKIDRSFVGGMDQRAENFQLVRAMINLAHNLNLEVVAEGVETLRQQEQLRDFGCDQVQGYWISPPLPLAELARFLGIGERSAHRGQPLGN",binding,binds

# Reference: publication PMC7290235, “Regulation of Exopolysaccharide Production by ProE, a Cyclic-Di-GMP Phosphodiesterase in Pseudomonas aeruginosa PAO1” (Frontiers in Microbiology, 2020)
